Experimental findings from PubChem BioAssay AID2685 (National Center for Advancing Translational Sciences (NCATS), 2010) are described below.

The assay can be described thus: qHTS Assay for Lipid Storage Modulators in Drosophila S3 Cells.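 As to cell number change: cells counted by Cell Tracker Red CMTPX staining in the red channel.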 The following applies: BODIPY lipid droplet fluorescence, 18-24 h; for cell number change: measured here: cell count max response, cells fed with added oleic acid. In short, it runs like this: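 Drosophila S3 cells got compounds at several concentrations plus oleic acid (400 uM solution). Laser-scanning cytometry with 488 nm excitation read lipid droplets at 500-530 nm and cells at 575-640 nm. Percent activity was relative to 20 uM Triacsin C.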

Setting [1] is: measured here: lipid fluorescence (Fed channel) AC50, cells fed with added oleic acid.
Where [2] appears, read: measured here: cell number channel AC50, cells fed with added oleic acid.

The other results are listed elsewhere or left out. The main result of the screen is listed elsewhere. These columns were measured beside it and carry no call. Compounds called inactive in the main read-out are mostly missing here. Words in brackets tell the shape of the fitted curve; partial curves, single points and poor fits give uncertain potencies.

As to `CCOCCn1c(CN2CCC(C)CC2)nc2c1c(=O)n(C)c(=O)n2C`, under setting [1], the AC50 is 0.00461 µM [rising, full curve, poor fit]. Take `COc1ccc(C(=O)Nc2ccc(Cl)cc2C(=O)N2CCCC(C)C2)cc1` (configuration not stated): the cell number change was found to be 81.6%. Further, the AC50 under setting [2] was 14.6 µM [rising, partial curve]. Turning to `O=C(CCCN1C(=O)/C(=C/c2ccccc2Cl)SC1=S)N1CCCC1`, the cell number change was -21.8%. In addition, the half-maximal activity concentration (AC50) under setting [1] was 29.1 µM [falling, single point]. Turning to `CCCSc1oc(-c2ccco2)nc1S(=O)(=O)c1ccccc1`, the cell number change is -20%. The AC50 under setting [1] is 0.651 µM [rising, single point]. As to `O=C(CCC(=O)OCC(=O)c1ccc(Br)cc1)Nc1ccc(Br)c2cccnc12`, the cell number change turned out to be 42.1%. In addition, the AC50 under setting [2] was 16.4 µM [rising, partial curve, poor fit]. Take `O=C(O)Cn1cccc1C(=O)c1ccccc1`: the cell number change amounted to 16%. Under setting [1], the AC50 is 6.51 µM [rising, single point]. In the case of `CC1CCC/C(=C\Nc2ccc3c(c2)OCO3)C1=O` (configuration not stated), the cell number change worked out at 22%. In addition, the AC50 under setting [2] is 1.84 µM [rising, partial curve, poor fit]. Besides, under setting [1], the AC50 is 0.366 µM [rising, full curve, poor fit]. Take `Cc1ccccc1-n1c(C)cc(/C=C2/C(=N)N3C(c4ccccc4)=CSC3=NC2=O)c1C`: the cell number change was -6.55%. With `COc1cc(C(=O)NC(=S)N(CCc2ccccc2)CCc2ccccc2)cc(OC)c1OC`, the cell number change is -3.56%. Also, the AC50 under setting [1] was 0.58 µM [rising, single point].

`CC(C(=O)N1CCCC1)N1CCN(S(=O)(=O)c2ccc(OC(F)(F)F)cc2)CC1` (configuration not stated): the cell number change was -16.3%. Besides, under setting [2], the AC50 is 2.06 µM [falling, partial curve]. Also, the AC50 under setting [1] is 3.66 µM [falling, partial curve]. For the compound `O=S(=O)(c1ccc(F)cc1)N(CCO)CC(O)Cn1c2ccccc2c2ccccc21` (configuration not stated), the cell number change is -53.1%. Moreover, the AC50 under setting [2] is 29.1 µM [falling, single point].

Take `CC(=O)c1c(C)[nH]c(C(=O)C(C)Sc2nnc(NC3CC3)s2)c1C` (configuration not stated): the cell number change was -18.2%. Moreover, the AC50 under setting [1] was 25.9 µM [falling, partial curve, poor fit]. Regarding `COCCNC(=O)C(c1c[nH]c2ccccc12)N(C(=O)c1snc(C(N)=O)c1N)c1cccc(OC)c1` (configuration not stated), the cell number change is 1.78%. In addition, under setting [2], the AC50 is 0.146 µM [falling, partial curve, poor fit].

Regarding `O=c1c2ccccc2n2c(-c3ccc(F)cc3)nnc2n1Cc1ccccc1`, the cell number change was 3.68%. For `C/C(=N\NC(=O)C(O)(c1ccccc1)c1ccccc1)c1ccc(NC(=O)CCCC(=O)O)cc1`, under setting [1], the AC50 is 2.91 µM [rising, partial curve].

For the compound `O=[N+]([O-])c1ccccc1OCc1nc(-c2cccs2)no1`, the cell number change was 89.9%. In addition, under setting [2], the concentration at half-maximal activity (AC50) is 23.1 µM [rising, single point]. For the same compound, the AC50 under setting [1] was 18.4 µM [rising, single point]. In the case of `COCCN1CCN(C(=O)c2cc(COc3cncc(Cl)c3)on2)CC1`, the cell number change was -6.23%. On to `CCc1cccc(C)c1NC(=O)CSc1nc(C)c(C)o1`, for which the cell number change is -1.02%. Further, under setting [1], the half-maximal activity concentration (AC50) is 29.1 µM [rising, single point].

Consider `Cc1nnc(NC(=O)CSc2nc3ccccc3[nH]2)s1`, for which the cell number change was 76.9%. Further, the AC50 under setting [2] was 20.6 µM [rising, partial curve]. Under setting [1], the concentration at half-maximal activity (AC50) is 23.1 µM [rising, single point].

Consider `CCOC(=O)C1CCN(C(=O)C2CCCN(S(=O)(=O)c3ccc(OCC)c(Cl)c3)C2)CC1` (configuration not stated), for which the cell number change was -34%. Moreover, the AC50 under setting [2] was 23.1 µM [falling, partial curve]. For the compound `CN1CCN(C(=O)c2ccc(-c3cccs3)s2)CC1`, the cell number change came to 23.1%. As for `CCCC(=O)Nc1ccc2oc(-c3ccc(OC)c(Br)c3)nc2c1`, the cell number change was -44.9%. Moreover, the AC50 under setting [2] is 16.4 µM [falling, single point]. For the same compound, under setting [1], the half-maximal activity concentration (AC50) was 0.116 µM [rising, full curve, poor fit]. With `COc1ccc(CC(=O)NNC(=O)c2ccc(NC(C)=O)cc2)cc1`, the cell number change is -9.55%. For the same compound, the AC50 under setting [2] is 2.91 µM [falling, single point]. Turning to `Oc1ccc(Cl)cc1CNCc1ccc(Cl)cc1`, the cell number change was -51.6%. The AC50 under setting [2] is 16.4 µM [falling, single point]. Take `O=C1CSC(c2cccc([N+](=O)[O-])c2)N1Cc1ccccc1` (configuration not stated): the cell number change turned out to be 19.6%. Consider `COc1ccc(N(Cc2cc3cc(OC)ccc3[nH]c2=O)C(=O)C2CCCO2)cc1` (configuration not stated), for which the cell number change was 11.1%. Besides, the AC50 under setting [1] is 29.1 µM [rising, single point]. As for `CCC(CO)NC(=O)c1cc2c(s1)CCC2` (configuration not stated), the cell number change was 2.64%. For the same compound, under setting [1], the AC50 was 2.06 µM [falling, partial curve, poor fit]. For the compound `COc1cccc(NS(=O)(=O)c2ccc(S(=O)(=O)N3CCCC3)cc2)c1`, the cell number change was -7.05%. Also, under setting [1], the AC50 was 0.82 µM [falling, single point]. Take `CSCC(C)N1CCC(n2nccc2NC(=O)CCCc2ccccc2)CC1` (configuration not stated): the cell number change amounted to 96.5%. In addition, under setting [2], the AC50 was 29.1 µM [rising, single point]. The AC50 under setting [1] is 18.4 µM [rising, partial curve]. For `CCNC(=O)C(=O)NCC1CCCN1S(=O)(=O)c1cccs1` (configuration not stated), the cell number change stood at 22.9%. Take `C=CCN(C1CCCCC1)S(=O)(=O)c1ccc2c(c1)oc(=O)n2C`: the cell number change was 12.7%. Besides, under setting [1], the AC50 is 0.58 µM [rising, full curve, poor fit]. In the case of `COC(=O)C1=C(C)N(Cc2ccccc2)C(=NCc2ccco2)N[C@H]1c1ccc(Br)cc1`, the cell number change was determined as 16%. With `COc1cccc(NC(=O)c2nc3nc(C)cc(C(F)F)n3n2)c1`, the cell number change was found to be 49.8%. Further, the AC50 under setting [2] was 16.4 µM [rising, partial curve].

Take `OC(COc1ccccc1)CN(Cc1ccccc1)CC(O)COc1ccccc1` (configuration not stated): the cell number change was -41.6%. The AC50 under setting [2] is 29.1 µM [falling, single point]. The AC50 under setting [1] was 10.3 µM [falling, partial curve].

For `COc1cccc(NC(=O)CSc2nnnn2C2CCCCC2)c1`, the cell number change worked out at 11.7%. For the compound `Cc1ccc2c(CC(=O)OCn3nnc4ccccc4c3=O)coc2c1`, the cell number change was -1.08%. Moreover, under setting [1], the AC50 is 0.259 µM [falling, full curve, poor fit].

Turning to `CCN(CC)c1ccc(C(=O)OCC(=O)NCC2CCCO2)cc1` (configuration not stated), the cell number change stood at 17.7%. Further, the AC50 under setting [1] was 0.58 µM [falling, single point].

Regarding `Cc1ccccc1NS(=O)(=O)c1nnc(NC(=O)CC(C)C)s1`, the cell number change stood at 1.42%. In the case of `COc1cc(C(=O)NC(C)CCc2ccccc2)cc(OC)c1OC` (configuration not stated), the cell number change is 11.7%. The AC50 under setting [1] was 0.58 µM [rising, single point]. `OC(CNCc1ccccc1)(c1ccccc1)c1ccccc1`: the cell number change is -6.38%. Also, the half-maximal activity concentration (AC50) under setting [2] is 2.91 µM [rising, single point]. Further, the AC50 under setting [1] was 0.103 µM [rising, full curve, poor fit]. For `CCOC(=O)N1CCOCCOCCN(C(=O)OCC)CCOCC1`, the cell number change is -1.44%. Further, the AC50 under setting [1] was 0.116 µM [falling, full curve, poor fit]. In the case of `O=C(NCC1CCCO1)C1c2ccccc2C(=O)N1C1CCCCCC1` (configuration not stated), under setting [2], the AC50 is 6.51 µM [falling, single point].

On to `O=C(COC(=O)c1ncc(Cl)c(Cl)c1Cl)NCCc1ccccc1`, for which the cell number change was -29.2%. In the case of `O=C(/C=C/c1c(F)cccc1Cl)N1CCOCC1`, the cell number change is -19.4%. Moreover, the concentration at half-maximal activity (AC50) under setting [1] was 29.1 µM [rising, single point]. `N#Cc1ccccc1OCC(=O)OCC(=O)c1c[nH]c2ccccc12`: the cell number change was -8.12%. For the same compound, the AC50 under setting [1] is 1.84 µM [falling, single point]. Regarding `Cc1ccc(S(=O)(=O)N2CCN(C3CC(=O)N(CCc4ccccc4)C3=O)CC2)cc1C` (configuration not stated), the cell number change turned out to be 2.07%. For the same compound, the AC50 under setting [1] was 0.651 µM [falling, single point]. Consider `Cc1ccc(C(=O)CCC(=O)OCC(=O)NNC(=O)c2ccc([N+](=O)[O-])cc2)cc1`, for which the cell number change was -24.9%. Regarding `O=C(c1cc(C2CC2)nn1-c1ccccc1)N1CCN(c2ncc(C(F)(F)F)cc2Cl)CC1`, the cell number change is 25.5%. For the same compound, under setting [1], the AC50 is 29.1 µM [rising, single point]. As to `CC1CCN(C(=O)CSc2nc3ccccc3[nH]2)CC1`, the AC50 under setting [2] was 7.31 µM [falling, single point] and the AC50 under setting [1] is 6.51 µM [falling, partial curve]. `COc1ccc(NC(=O)CSCC(=O)N2c3ccccc3CCc3ccccc32)cc1`: the cell number change was -30.2%. Besides, the concentration at half-maximal activity (AC50) under setting [2] was 2.31 µM [falling, partial curve, poor fit]. Besides, the AC50 under setting [1] is 10.3 µM [rising, partial curve]. Turning to `O=C(Nc1ccc(N2CCCCC2)cc1)c1ccccn1`, the cell number change is 58.8%. Besides, the concentration at half-maximal activity (AC50) under setting [2] was 2.91 µM [rising, full curve]. The AC50 under setting [1] is 4.11 µM [rising, full curve]. Take `COc1ccc(NS(=O)(=O)c2ccc(-c3coc(C)n3)cc2)cc1`: the cell number change was -13%. Moreover, the AC50 under setting [1] was 0.58 µM [rising, single point].

In the case of `CCOC(=O)C1CCN(C(=O)COC(=O)c2ccc([N+](=O)[O-])o2)CC1`, the cell number change is -37.6%. Further, the AC50 under setting [2] is 25.9 µM [falling, partial curve, poor fit]. Turning to `Cc1cc(C)nc(/N=C2\NC(=O)CC(C(=O)O)N2c2ccc(F)c(Cl)c2)n1` (configuration not stated), the cell number change was found to be 1.94%. For `COc1ccc(-c2cc(C(=O)NCc3cn(C)nc3C)c3ccccc3n2)cc1OC`, the cell number change was 21.5%. The AC50 under setting [1] is 2.59 µM [rising, single point]. With `Cc1nc(N2CCC(C(N)=O)CC2)c2nnn(Cc3ccccc3)c2n1`, the cell number change is 24.2%. In addition, the AC50 under setting [1] was 1.64 µM [rising, partial curve].

With `Nc1ccc2c(c1)Oc1ccccc1C=C2`, the cell number change stood at 20.3%. Further, under setting [1], the AC50 was 29.1 µM [rising, single point]. `CCOC(=O)C1=C(C(F)(F)F)Nc2ncnn2C1c1ccc(OC)c(OC)c1OC` (configuration not stated): the cell number change worked out at 0.157%. Besides, the AC50 under setting [1] was 0.00461 µM [falling, full curve, poor fit]. As for `Cc1ccc(-c2nnc(CCC(=O)NCC3C4CC5CC(C4)CC3C5)o2)s1` (configuration not stated), the cell number change is -43.6%. In addition, under setting [2], the AC50 was 16.4 µM [falling, partial curve]. The AC50 under setting [1] was 14.6 µM [falling, partial curve]. Consider `Cc1ccc(C(=O)N/C(=C\c2cccc([N+](=O)[O-])c2)C(=O)OCN2C(=O)c3ccccc3C2=O)cc1`, for which the cell number change was found to be 57.5%. Also, the AC50 under setting [2] was 29.1 µM [rising, single point]. For the same compound, the concentration at half-maximal activity (AC50) under setting [1] was 29.1 µM [rising, partial curve].
